Results reported in paper PMC12040169 (PLOS Biology, 2025).
The list shows a part of the results.

These molecules were tested on T1, CTL2-GFP (C. trachomatis L2/434/Bu, GFP-expressing). Conditions: bulk GFP, single well; 28.5 h, 10 µM; inhibitor.
T1 construct: L2/434/Bu, GFP-expressing
Design: species or system HeLa; Intracellular C. trachomatis growth in HeLa cells, bulk GFP fluorescence relative to DMSO
For `Cc1cc(C)nc(SCC(=O)N2c3ccccc3C(C)(c3ccc(Cl)cc3)CC2(C)C)n1` (stereo not drawn) [CBK073872], the “% of control remaining” value was 25.4166%. With `CC(=O)Nc1ccc(NCc2ncc(C(C)(C)C)o2)c(Cl)c1` [CBK306135] the “% of control remaining” value was 119.489%. With `CSCCOc1cc(NC(C)C)ncn1` [CBK115889] the “% of control remaining” value was 86.7619%. With `COc1ccc(NC(=O)Cn2cnc3c2c(=O)n(C)c(=O)n3C)cc1Cl` [CBK134216] the “% of control remaining” value was 83.1263%. In the case of `COc1cnc(-c2cc(Cl)cc(Cl)c2)c(NC(=O)c2ccsc2)n1` [CBK145340], the “% of control remaining” value is reported as 186.91%. `O=c1c(-c2ccccc2)c(O)cc(-c2ccccc2)n1Cc1ccccc1` [CBK291188] was tested, and the “% of control remaining” value was 127.8%. For `Cc1[nH]c2cccc(C(=O)N3CCOC(C)(C(=O)NC4CCCC4)C3)c2c1C` (stereo not drawn) [CBK285800], the “% of control remaining” value was 135.01%. With `CC1=CCC2C(=O)N(c3ccccc3)C(=O)C2C1` (stereo not drawn) [CBK086490] the “% of control remaining” value was 127.623%. In the case of `CCc1onc(C)c1C(=O)N1CCN(C2CCNC2)CC1` (stereo not drawn) [CBK304258], the “% of control remaining” value is reported as 160.122%. In the case of `C=C(C)Cn1c(SCC(C)C)nnc1-c1ccc(O)nc1` [CBK200094], the “% of control remaining” value is reported as 118.826%. In the case of `Cc1cc(C[C@@H]2COC[C@H]2NCC(C)c2ccccc2)on1` (stereo partly drawn) [CBK285145], the “% of control remaining” value is reported as 106.25%. With `O=C(Cc1ccc(-c2ccccc2)cc1)NCc1cccnc1` [CBK262591] the “% of control remaining” value was 111.822%. With `COc1ccc(NC(=O)c2ccc3c(c2)C(=O)N(Cc2ccncc2)C3=O)cc1` [CBK269660] the “% of control remaining” value was 137.24%. In the case of `Cc1ncccc1COC(=O)Nc1cnc2ccccc2c1` [CBK200128], the “% of control remaining” value is reported as 77.0305%. In the case of `Cc1ccc(NC(C(N)=O)c2c(C)[nH]c(=O)[nH]c2=O)cc1` (stereo not drawn) [CBK111355], the “% of control remaining” value is reported as 119.337%. In the case of `Cc1cnc(NCC2(CO)CCOCC2)nc1N(C)C` [CBK307026], the “% of control remaining” value is reported as 96.152%. In the case of `Cc1ccc(Oc2ccc(C(F)(F)F)cc2[N+](=O)[O-])c(Br)c1` [CBK002817], the “% of control remaining” value is reported as 146.941%. `C=CCN1CCC(C(=O)NC(C)c2ccc(OC)c(OC)c2)CC1` (stereo not drawn) [CBK148924] was tested, and the “% of control remaining” value was 95.2162%. `O=C(CCSc1ccccc1)Nc1ccc(Br)cc1F` [CBK266825] was tested, and the “% of control remaining” value was 116.25%. In the case of `Cc1noc(C2=CC=CN3C2=NNC32CCNCC2)n1` [CBK288058], the “% of control remaining” value is reported as 126.499%. For `COc1cccc(NC(=O)N2CCN3C(=O)[C@H](Cc4ccc(O)cc4)NC(=O)[C@@H]3C2)c1` [CBK289618], the “% of control remaining” value was 136.163%. For `Cn1cnc([N+](=O)[O-])c1Oc1cccc(C(F)(F)F)c1` [CBK002790], the “% of control remaining” value was 58.9276%. `CC(=O)N1CCc2sccc2C1c1ccc(NC(=O)c2ccccc2F)cc1` (stereo not drawn) [CBK286433] was tested, and the “% of control remaining” value was 111.021%. With `O=C(O)c1ccccc1-n1c(=O)c2cc3c(=O)n(-c4ccccc4C(=O)O)c(=O)c3cc2c1=O` [CBK261097] the “% of control remaining” value was 100%. `Cc1cc2c(cc3c(=O)n(CC(=O)N4CCCCC4)nc(C)n32)o1` [CBK283630] was tested, and the “% of control remaining” value was 135.974%. With `O=C(NCc1ccc(Cl)c(Cl)c1)c1cnoc1-c1ccccc1Cl` [CBK154942] the “% of control remaining” value was 92.7566%. For `N#CCc1ccc(Nc2cc(-c3cccc(N)c3)ncn2)cc1` [CBK091187], the “% of control remaining” value was 134.9%. With `NC(=O)CCn1c(=S)n(CCC(N)=O)c2ccccc21` [CBK262301] the “% of control remaining” value was 112.809%. `Nc1ncc(-c2ccc(O)cc2)nc1N1CCC[C@@H]1CO` [CBK063669] was tested, and the “% of control remaining” value was 167.469%. In the case of `O=C1NCC2(C/C=C/CCOc3ccccc31)CCN(C(=O)CCN1CCCC1)CC2` [CBK292020], the “% of control remaining” value is reported as 125.092%. For `Cc1[nH]nc(-c2ccc(OCc3cnn(-c4ccccc4)c3)cc2O)c1Oc1ccc(Cl)cc1` [CBK264939], the “% of control remaining” value was 100%. With `COC(=O)c1ccc2c(=O)n(CC(C)O)c(SC)nc2c1` (stereo not drawn) [CBK305018] the “% of control remaining” value was 136.03%. In the case of `CC1CCc2c(sc(NC(=O)c3cc(-c4ccccn4)nc4c(Cl)cccc34)c2C(N)=O)C1` (stereo not drawn) [CBK267744], the “% of control remaining” value is reported as 154.76%. For `COCCn1c(CO)nnc1[C@H]1C[C@@H](NC(=O)c2ccc(F)cc2C)C1` [CBK306856], the “% of control remaining” value was 142.637%. In the case of `CC(C)(C)S(=O)(=O)c1ccc2nc3c(n2c1)CCCC3` [CBK006753], the “% of control remaining” value is reported as 105.265%. `CCCN(C)Cc1ccc(-c2cn(CC(=O)NCc3ccc(C(F)(F)F)cc3)nn2)cc1` [CBK164719] was tested, and the “% of control remaining” value was 125.624%. With `CCCC(=O)c1ccc(S(=O)(=O)N2CCN(Cc3ccc(F)c(C(F)(F)F)c3)CC2)cc1` [CBK063162] the “% of control remaining” value was 112.538%. In the case of `O=C(COc1ccc(S(=O)(=O)N2CCOCC2)cc1)N1CCc2ccccc2C1` [CBK268350], the “% of control remaining” value is reported as 129.452%. In the case of `Cc1ccc2c(c1)nc(CNC(=O)NCc1ccnc(C)n1)n2C` [CBK304292], the “% of control remaining” value is reported as 87.8987%. With `Cc1ccccc1-n1ncc2c1NC(=O)N1CCCN=C21` [CBK284409] the “% of control remaining” value was 100.32%. For `CC(C)(C)c1cn(C[C@H]2CC3CCN2C[C@@H]3C(=O)NC2CCCCC2)nn1` (stereo partly drawn) [CBK289085], the “% of control remaining” value was 146.476%. For `Cc1ccccc1C(=O)NCC(=O)Nc1ccc(Br)c2ccccc12` [CBK091343], the “% of control remaining” value was 78.0295%. With `O=C(CN1CCOCC1)N1CCN(C(=O)c2ccco2)CC1` [CBK144478] the “% of control remaining” value was 108.941%. For `Cc1ccc(N(CC(=O)Nc2ccc(S(=O)(=O)N3CCCCC3)cc2)S(C)(=O)=O)c(C)c1` [CBK263981], the “% of control remaining” value was 86.3953%. In the case of `O=C(COc1ccc([N+](=O)[O-])cc1)N/N=C/c1cc(Br)cc(Br)c1O` [CBK262094], the “% of control remaining” value is reported as 78.0809%. For `Nc1nc2cccnc2cc1-c1ccc2c(c1)OCCCO2` [CBK081201], the “% of control remaining” value was 130.959%. For `CCOc1cc(/C=N/Nc2nncn2N)cc(I)c1O` [CBK027879], the “% of control remaining” value was 122.891%. For `O=C(NC1CCCC1)c1ccc(-c2cnc3[nH]c(=O)n(C4CCCCC4)c3n2)cc1` [CBK064582], the “% of control remaining” value was 82.8224%. `c1ccc(-c2nnc(C3CCNCC3)[nH]2)nc1` [CBK288629G] was tested, and the “% of control remaining” value was 127.976%. With `C[C@@H](c1ccccc1)n1c(=O)[nH]c2ncc(-c3cccc4cccnc34)nc21` [CBK064199] the “% of control remaining” value was 185.389%. In the case of `CC(C)c1ccc(NS(=O)(=O)c2cc3c(N4CCNCC4)nccc3s2)cc1` [CBK038104C], the “% of control remaining” value is reported as 104.618%. For `Cn1cc(CN2CCC(C(=O)NC(c3ccc4c(c3)OCO4)c3ccccn3)CC2)c2ccccc21` (stereo not drawn) [CBK148183], the “% of control remaining” value was 168.107%. `CCOC(=O)c1cn(CC)c2cc(N3CCCC3)c(F)cc2c1=O` [CBK307169] was tested, and the “% of control remaining” value was 128.764%. In the case of `Cn1c(SCc2ccc([N+](=O)[O-])cc2)nnc1C(O)c1ccccc1` (stereo not drawn) [CBK269735], the “% of control remaining” value is reported as 138.695%. For `O=C(O)c1ccc(NS(=O)(=O)c2cc(Br)c(Cl)s2)cc1` [CBK034049], the “% of control remaining” value was 87.58%. `COc1cccc([C@H]2CN(C(=O)c3ccccc3)[C@@H]3CCN(Cc4ccccc4C)C[C@H]23)c1` [CBK285610] was tested, and the “% of control remaining” value was 88.2165%. With `CC(C)(C)OC(=O)N1CCCC(C(=O)NCc2ccco2)C1` (stereo not drawn) [CBK305102] the “% of control remaining” value was 145.333%. In the case of `O=C(O)CCC(=O)Nc1cccc2ccccc12` [CBK260889], the “% of control remaining” value is reported as 111.052%. For `O=C(CSc1nnc2sc3ccccc3n12)N1c2ccccc2Sc2ccccc21` [CBK265457], the “% of control remaining” value was 121.688%. For `Cc1cc(C)n(CC(O)CN(Cc2ccccc2)Cc2ccco2)n1` (stereo not drawn) [CBK282957], the “% of control remaining” value was 148.831%. With `CC(C)(C)c1cc(CCC(c2cc(C(C)(C)C)c(O)c(C(C)(C)C)c2)c2cc(C(C)(C)C)c(O)c(C(C)(C)C)c2)cc(C(C)(C)C)c1O` [CBK261271] the “% of control remaining” value was 104.139%. In the case of `Cc1noc2nc(-c3ccco3)cc(C(=O)N(C)CCOc3ccccc3)c12` [CBK295623], the “% of control remaining” value is reported as 103.539%. With `O=C(c1cccnc1)C1CCN(C(=O)c2cccs2)CC1` [CBK283528] the “% of control remaining” value was 86.731%. In the case of `CC(=O)c1ccc(S(=O)(=O)Nc2ccc(C)cc2)cc1` [CBK045380], the “% of control remaining” value is reported as 98.7196%. With `CC(=O)Nc1cccc(-c2cnc(N)c(NC3CCOCC3)n2)c1` [CBK063845] the “% of control remaining” value was 96.9%. For `O=C(CSCc1ccc(Br)cc1)Nc1cccnc1` [CBK268543], the “% of control remaining” value was 108.381%. In the case of `CN(C)CC1CCCCN1C(=O)C1CC2C=CC1C21CC1` (stereo not drawn) [CBK282085], the “% of control remaining” value is reported as 111.925%. `COc1ccccc1-c1cnn2c(NCC3CCCO3)cc(C)nc12` (stereo not drawn) [CBK304529] was tested, and the “% of control remaining” value was 147.123%. `CC1CCN(C(=O)[C@@H]2CN(C)C[C@]23CCc2ccccc2C3=O)CC1` [CBK284589] was tested, and the “% of control remaining” value was 108.53%. `O=C(Nc1cccc2ccccc12)N1CCN(Cc2ccc3c(c2)OCO3)CC1` [CBK074747] was tested, and the “% of control remaining” value was 85.886%. `CSCC(=O)N[C@H]1CCN2C(=O)N(c3cccc(C(C)=O)c3)C(=O)[C@@H]2C1` [CBK289546] was tested, and the “% of control remaining” value was 109.473%. For `O=c1[nH]c2ccc(S(=O)(=O)Nc3ccc(-c4ccccc4)cc3)cc2[nH]1` [CBK266999], the “% of control remaining” value was 106.691%. In the case of `Cc1cc(C2CCCCCN2C(=O)c2c(C)noc2C)no1` (stereo not drawn) [CBK284845], the “% of control remaining” value is reported as 128.12%. `c1ccc(OCCNc2nccnc2N2CCNCC2)cc1` [CBK013527] was tested, and the “% of control remaining” value was 87.2747%. `CN(C)CC(C)(C)CNC(=O)c1cnc2cc(C(F)(F)F)ccc2c1O` [CBK107427] was tested, and the “% of control remaining” value was 88.7393%. `Cc1ccc2nc(CN3CCC(CNc4ccccn4)C3)cc(=O)n2c1` (stereo not drawn) [CBK306340] was tested, and the “% of control remaining” value was 143.228%. In the case of `COc1cccc(C(=O)Nc2nc(-c3ccc(C(C)C)cc3)cs2)c1` [CBK101110], the “% of control remaining” value is reported as 108.953%. For `OC1CCn2c1nc1cc(Cl)ccc12` (stereo not drawn) [CBK113623], the “% of control remaining” value was 115.917%.
